Laboratory results from PMC10085708.
Results are given in words; binding and its absence hold for the method and conditions named. Binding seen in cells or lysates may run through a third protein. Some entries that bind do so weakly or less than the wild type.

The chains behind the UniProt entries cited, without tags or fusion partners. Where a name states a change or a piece, a line headed by the entry shows the natural chain unless it says otherwise. A line that says so, or that is headed by a name, gives the form on record, which may keep a tag or linker. Residues count along the entry.
UniProt P84022: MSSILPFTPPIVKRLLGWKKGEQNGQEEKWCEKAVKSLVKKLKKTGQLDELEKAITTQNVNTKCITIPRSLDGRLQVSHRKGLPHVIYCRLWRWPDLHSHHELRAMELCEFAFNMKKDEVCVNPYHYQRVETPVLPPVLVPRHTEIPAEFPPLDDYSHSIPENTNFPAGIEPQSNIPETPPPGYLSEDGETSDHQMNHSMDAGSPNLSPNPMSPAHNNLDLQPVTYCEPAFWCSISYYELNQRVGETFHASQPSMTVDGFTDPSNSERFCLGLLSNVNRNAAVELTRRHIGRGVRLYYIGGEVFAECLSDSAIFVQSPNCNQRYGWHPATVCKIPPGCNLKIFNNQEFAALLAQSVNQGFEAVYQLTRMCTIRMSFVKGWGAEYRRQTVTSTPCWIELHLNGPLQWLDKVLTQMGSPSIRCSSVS
Flag-SMAD3 ΔN, lacking the MH1 domain (133-425): residues 133-425 of P84022
UniProt P10275: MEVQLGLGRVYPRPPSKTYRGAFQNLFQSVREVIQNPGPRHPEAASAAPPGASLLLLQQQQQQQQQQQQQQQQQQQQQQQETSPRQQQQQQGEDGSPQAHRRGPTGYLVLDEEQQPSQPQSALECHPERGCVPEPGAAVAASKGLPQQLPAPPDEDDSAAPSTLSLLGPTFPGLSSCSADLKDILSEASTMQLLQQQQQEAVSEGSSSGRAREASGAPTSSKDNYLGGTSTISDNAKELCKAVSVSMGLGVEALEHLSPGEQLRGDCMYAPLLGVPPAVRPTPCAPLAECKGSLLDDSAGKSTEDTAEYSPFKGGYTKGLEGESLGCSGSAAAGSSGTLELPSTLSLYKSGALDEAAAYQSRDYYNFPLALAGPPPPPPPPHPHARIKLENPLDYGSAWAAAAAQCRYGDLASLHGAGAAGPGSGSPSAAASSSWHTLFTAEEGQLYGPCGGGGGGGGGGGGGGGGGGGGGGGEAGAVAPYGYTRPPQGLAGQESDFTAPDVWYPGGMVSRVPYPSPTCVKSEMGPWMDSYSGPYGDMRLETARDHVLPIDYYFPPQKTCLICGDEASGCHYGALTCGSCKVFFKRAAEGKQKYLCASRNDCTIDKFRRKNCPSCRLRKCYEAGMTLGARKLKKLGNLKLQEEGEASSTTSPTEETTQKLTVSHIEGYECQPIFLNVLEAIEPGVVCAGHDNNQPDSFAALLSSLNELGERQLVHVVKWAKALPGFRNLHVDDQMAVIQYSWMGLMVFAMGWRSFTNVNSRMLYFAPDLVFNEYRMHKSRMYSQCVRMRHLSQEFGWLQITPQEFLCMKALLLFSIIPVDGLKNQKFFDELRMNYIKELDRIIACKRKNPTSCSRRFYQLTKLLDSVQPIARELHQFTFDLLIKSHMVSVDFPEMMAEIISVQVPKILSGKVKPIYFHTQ
AR-V7, endogenous (P10275-3, form named): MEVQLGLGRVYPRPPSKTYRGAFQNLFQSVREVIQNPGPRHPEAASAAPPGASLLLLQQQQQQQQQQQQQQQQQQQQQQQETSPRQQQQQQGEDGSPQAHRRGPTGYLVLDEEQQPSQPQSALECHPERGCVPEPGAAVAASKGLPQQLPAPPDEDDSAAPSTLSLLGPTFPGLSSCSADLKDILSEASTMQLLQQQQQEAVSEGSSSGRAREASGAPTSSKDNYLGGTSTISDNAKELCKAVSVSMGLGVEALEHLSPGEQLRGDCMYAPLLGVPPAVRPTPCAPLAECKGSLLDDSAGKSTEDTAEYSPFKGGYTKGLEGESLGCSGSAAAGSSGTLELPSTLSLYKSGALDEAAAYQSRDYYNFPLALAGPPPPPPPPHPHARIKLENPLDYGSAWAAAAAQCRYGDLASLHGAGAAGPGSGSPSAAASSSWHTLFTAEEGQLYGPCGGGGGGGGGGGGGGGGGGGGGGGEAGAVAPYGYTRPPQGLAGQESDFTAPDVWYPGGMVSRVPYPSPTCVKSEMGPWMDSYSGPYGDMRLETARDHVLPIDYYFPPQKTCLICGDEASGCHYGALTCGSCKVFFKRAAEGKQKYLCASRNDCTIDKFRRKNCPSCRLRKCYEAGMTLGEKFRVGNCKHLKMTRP

Key:
[1] = molecular target: SMAD3, endogenous (human (endogenous in Rv1, C4-2, LN95)) (UniProt P84022); experiment: co-IP; endogenous proteins in Rv1 or LN95 cells (Supplementary Figure S4B)
[2] = molecular target: Flag-SMAD3 ΔN, lacking the MH1 domain (133-425) (UniProt P84022); experiment: co-IP; Flag- and myc-tagged proteins co-expressed in 293T cells; Flag IP, western blot with Flag or myc antibodies

AR-V7, endogenous (from UniProt P10275-3 1-644)
binding [1]: binds

Myc-AR (from UniProt P10275 1-920)
binding [2]: binds
